Where two headings read alike, the source gives them in different places. For part of these data: At least one peptide structure holds a part that was inferred or is arguable (an end, a ring closure or a residue). Some compounds share one wording; it may come from a single statement. For part of these data: At least one structure is not confirmed: it was looked up by name or label, or the drawing left a doubt. Where a SMILES comes first, the peptide text is derived from it. Where no end group is shown, it is not given here. The star is where a group is joined. Stearoyl = CCCCCCCCCCCCCCCCCC(=O)*
How the values were obtained:
[1] = test system: human tongue squamous cell carcinoma CAL27 cells; type: cell-based; conditions: 48 h; for OD: CAL27, 80 μM; for inhibitory effect on proliferation of CAL27 cells compared with the HMMW treatment group: same dose (80 μM)
Protocol: After incubation was continued for 48 h, add 100 μL of CCK8 solution to each well of the 96-well plate.

[2] = test system: human tongue squamous cell carcinoma cells CAL27; experiment: CCK8 proliferation inhibition, CAL27 (Example 8); type: cell-based; conditions: CAL27, 100 μM, 48 h, FIG. 11
liver cancer cells Hep3B = experiment: CCK8 proliferation inhibition, Hep3B (Example 8); type: cell-based, human; conditions: 100 μM, 48 h, FIG. 13
[3] = test system: subcutaneous transplanted tumor model of tongue squamous cell carcinoma cells CAL27; experiment: CAL27 subcutaneous transplanted tumor model, long-acting peptides (Example 9); type: in vivo, BALB/c nude mice; conditions: 2.7 μM/kg; for in vivo tumorigenicity of CAL27 cells compared with normal saline control: subcutaneously injected on alternate days, 21 days, FIG. 14
[4] = test system: ovarian cancer cells SKOV3; experiment: CCK8 proliferation inhibition, SKOV3 (Example 8); type: cell-based, human; conditions: SKOV3, 100 μM, 48 h, FIG. 12

Molecule: MERAGVPGFSPRRSSVEASTSCSVRKSSTVTAWPAVVLLLSWGQRRGG [HMMW-7]
- OD ([1]; Table 1, deletion mutants): 0.392 ± 0.059
- inhibitory effect on proliferation of CAL27 cells compared with the HMMW treatment group [1]: comparable

Molecule: MERAGVPGFSPRRSSKMQSTSCSVRKSSTVTAWPAVVLLLSWGQRRGG [HMMW-6]
- OD ([1]; Table 1, deletion mutants): 0.352 ± 0.068
- inhibitory effect on proliferation of CAL27 cells compared with the HMMW treatment group [1]: comparable

Molecule: CCCCCCCCCCCCCCCCCC(=O)N[C@@H](CO)C(=O)N[C@H](C(=O)N[C@@H](CCC(=O)O)C(=O)N[C@@H](C)C(=O)N[C@@H](CCCCN)C(=O)N[C@@H](CCSC)C(=O)N[C@@H](CCC(N)=O)C(=O)N[C@@H](CO)C(=O)N[C@H](C(=O)N[C@@H](CO)C(=O)N[C@@H](CS)C(=O)N[C@@H](CO)C(=O)N[C@H](C(=O)N[C@@H](CCCNC(=N)N)C(=O)N[C@@H](CCCCN)C(=O)N[C@@H](CO)C(=O)N[C@@H](CO)C(=O)N[C@H](C(=O)N[C@H](C(=O)N[C@H](C(=O)N[C@@H](C)C(=O)N[C@@H](Cc1c[nH]c2ccccc12)C(=O)N1CCC[C@H]1C(=O)N[C@@H](C)C(=O)N[C@H](C(=O)N[C@H](C(=O)N[C@@H](CC(C)C)C(=O)N[C@@H](CC(C)C)C(=O)N[C@@H](CC(C)C)C(=O)N[C@@H](CO)C(=O)N[C@@H](Cc1c[nH]c2ccccc12)C(=O)NCC(=O)N[C@@H](CCC(N)=O)C(=O)N[C@@H](CCCNC(=N)N)C(=O)N[C@@H](CCCNC(=N)N)C(=O)NCC(=O)NCC(=O)O)C(C)C)C(C)C)[C@@H](C)O)C(C)C)[C@@H](C)O)C(C)C)[C@@H](C)O)C(C)C [C18-HMMW15-51] (Stearoyl-SVEAKMQSTSCSVRKSSTVTAWPAVVLLLSWGQRRGG-OH)
- inhibitory effects on proliferation, comparison among the three peptides [2]: no significant difference
- inhibitory effects on proliferation, comparison among the three peptides (liver cancer cells Hep3B): no significant difference
- in vivo tumorigenicity of CAL27 cells compared with normal saline control [3]: significantly inhibit
- inhibitory effects on proliferation, comparison among the three peptides [4]: no significant difference

Molecule: MERAGVPGFSPRRSSVEAKMQSTSCSVRKSSTVPAVVLLLSWGQRRGG [HMMW-12]
- OD ([1]; Table 1, deletion mutants): 0.307 ± 0.073
- inhibitory effect on proliferation of CAL27 cells compared with the HMMW treatment group [1]: comparable

Molecule: CCCCCCCCCCCCCCCCCC(=O)N[C@@H](C)C(=O)N[C@@H](C)C(=O)N[C@@H](CC(N)=O)C(=O)N[C@@H](CO)C(=O)N[C@H](C(=O)N[C@@H](CCC(=O)O)C(=O)N[C@@H](C)C(=O)N[C@@H](CCCCN)C(=O)N[C@@H](CCSC)C(=O)N[C@@H](CCC(N)=O)C(=O)N[C@@H](CO)C(=O)N[C@H](C(=O)N[C@@H](CO)C(=O)N[C@@H](CS)C(=O)N[C@@H](CO)C(=O)N[C@H](C(=O)N[C@@H](CCCNC(=N)N)C(=O)N[C@@H](CCCCN)C(=O)N[C@@H](CO)C(=O)N[C@@H](CO)C(=O)N[C@H](C(=O)N[C@H](C(=O)N[C@H](C(=O)N[C@@H](C)C(=O)N[C@@H](Cc1c[nH]c2ccccc12)C(=O)N1CCC[C@H]1C(=O)N[C@@H](C)C(=O)N[C@H](C(=O)N[C@H](C(=O)N[C@@H](CC(C)C)C(=O)N[C@@H](CC(C)C)C(=O)N[C@@H](CC(C)C)C(=O)N[C@@H](CO)C(=O)N[C@@H](Cc1c[nH]c2ccccc12)C(=O)NCC(=O)N[C@@H](CCC(N)=O)C(=O)N[C@@H](CCCNC(=N)N)C(=O)N[C@@H](CCCNC(=N)N)C(=O)NCC(=O)NCC(=O)O)C(C)C)C(C)C)[C@@H](C)O)C(C)C)[C@@H](C)O)C(C)C)[C@@H](C)O)C(C)C [C18-L-HMMW15-51] (Stearoyl-AANSVEAKMQSTSCSVRKSSTVTAWPAVVLLLSWGQRRGG-OH)
- inhibitory effects on proliferation, comparison among the three peptides [2]: no significant difference
- inhibitory effects on proliferation, comparison among the three peptides (liver cancer cells Hep3B): no significant difference
- in vivo inhibitory effects compared with the HMMW15-51 ([3]; subcutaneous on alternate days vs intravenous every day): better inhibitory effects
- in vivo tumorigenicity of CAL27 cells compared with normal saline control [3]: significantly inhibit
- inhibitory effects on proliferation, comparison among the three peptides [4]: no significant difference

Molecule: MERPGFSPRRSSVEAKMQSTSCSVRKSSTVTAWPAVVLLLSWGQRRGG [HMMW-2]
- OD ([1]; Table 1, deletion mutants): 0.404 ± 0.076
- inhibitory effect on proliferation of CAL27 cells compared with the HMMW treatment group [1]: comparable

Molecule: AGVPGFSPRRSSVEAKMQSTSCSVRKSSTVTAWPAVVLLLSWGQRRGG [HMMW-1]
- OD ([1]; Table 1, deletion mutants): 0.390 ± 0.087
- inhibitory effect on proliferation of CAL27 cells compared with the HMMW treatment group [1]: comparable

Molecule: MERAGVPGFSPRRSSVEAKMQSTSCSVRKSSTVTAWPAVVLLGQRRGG [HMMW-15]
- OD ([1]; Table 1, deletion mutants): 1.208 ± 0.038
- inhibitory effect on proliferation of CAL27 cells compared with the HMMW treatment group [1]: significantly decreased

Molecule: GVPGFSPRRSSVEAKMQSTSCSVRKSSTVTAWPAVVLLLSWGQRRGG [HMMW5-51]
- OD ([1]; Table 2, truncated fragments): 0.384 ± 0.085
- inhibitory effect on proliferation of CAL27 cells compared with the HMMW treatment group [1]: comparable

Molecule: MERAGVPGFSPRVEAKMQSTSCSVRKSSTVTAWPAVVLLLSWGQRRGG [HMMW-5]
- OD ([1]; Table 1, deletion mutants): 0.410 ± 0.079
- inhibitory effect on proliferation of CAL27 cells compared with the HMMW treatment group [1]: comparable

Molecule: MERAGVSPRRSSVEAKMQSTSCSVRKSSTVTAWPAVVLLLSWGQRRGG [HMMW-3]
- OD ([1]; Table 1, deletion mutants): 0.415 ± 0.091
- inhibitory effect on proliferation of CAL27 cells compared with the HMMW treatment group [1]: comparable

Molecule: SPRRSSVEAKMQSTSCSVRKSSTVTAWPAVVLLLSWGQRRGG [HMMW10-51]
- OD ([1]; Table 2, truncated fragments): 0.426 ± 0.093
- inhibitory effect on proliferation of CAL27 cells compared with the HMMW treatment group [1]: comparable

Molecule: MERAGVPGFSPRRSSVEAKMQSTSCSVRKSSTVTAWPAVVLLLSWRGG [HMMW-16]
- OD ([1]; Table 1, deletion mutants): 0.403 ± 0.075
- inhibitory effect on proliferation of CAL27 cells compared with the HMMW treatment group [1]: comparable

Molecule: MQSTSCSVRKSSTVTAWPAVVLLLSWGQRRGG [HMMW20-51]
- OD ([1]; Table 2, truncated fragments): 0.798 ± 0.076
- inhibitory effect on proliferation of CAL27 cells compared with the HMMW treatment group [1]: significantly decreased

Molecule: MERAGVPGFSPRRSSVEAKMQSTSCSVRKSSTVTAWPAVLSWGQRRGG [HMMW-14]
- OD ([1]; Table 1, deletion mutants): 1.007 ± 0.052
- inhibitory effect on proliferation of CAL27 cells compared with the HMMW treatment group [1]: significantly decreased

Molecule: MERAGVPGFSPRRSSVEAKMQSTSRKSSTVTAWPAVVLLLSWGQRRGG [HMMW-9]
- OD ([1]; Table 1, deletion mutants): 0.405 ± 0.061
- inhibitory effect on proliferation of CAL27 cells compared with the HMMW treatment group [1]: comparable

Molecule: MERAGVPGFSPRRSSVEAKMQCSVRKSSTVTAWPAVVLLLSWGQRRGG [HMMW-8]
- OD ([1]; Table 1, deletion mutants): 0.365 ± 0.047
- inhibitory effect on proliferation of CAL27 cells compared with the HMMW treatment group [1]: comparable

From US20260167673A1, “NOVEL POLYPEPTIDE, POLYPEPTIDE DERIVATIVE AND USE THEREOF” (NANJING ANJI BIOTECHNOLOGY CO., LTD., priority 2023, published 2026)
